Taken from: PubChem BioAssay AID743121 (NCATS, 2013)
Purpose: 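Partners whose loss is lethal together with topoisomerase I blockade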 (primary screen). System: MDA-MB-231 cells, a human breast cancer line. Knock-down reagent: single siRNA against human genes, 20 nM siRNA (0.8 pmol per well). Duration: 120 h (drug added 48 h after transfection, read 72 h later). Treatment: camptothecin 20 nM (about EC30) for 72 h; vehicle 0.1% DMSO in parallel plates. Read-out: 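Cell viability by ATP luminescence (CellTiter-Glo) as % of non-targeting siRNA wells, and the log2 ratio of viability without drug over viability with camptothecin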. Scale: log2 vehicle/camptothecin viability: higher = stronger sensitisation to camptothecin; viability with camptothecin and viability without drug: higher = more viable cells. Call rule: 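Each gene scored by redundant siRNA activity (RSA) over its individual siRNA ratios; a gene is called active at p < 0.001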.
Here is an unselected part of about 26,000 deposited reagents. 167 of them (0.63%) were called active. 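Calls are per gene from RSA p-values that are not deposited; an individual active-marked siRNA can sensitise only weakly.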 The numbers tell different reagents against one gene apart.

The opening 2 records, to show the layout:
gene symbol | siRNA no. | log2 vehicle/camptothecin viability | viability with camptothecin (% of control) | viability without drug (% of control) | Call
KCNN3 (potassium calcium-activated channel subfamily N member 3) | 1 | -0.33 | 79.3 | 63.1 | inactive
KCNN3 (potassium calcium-activated channel subfamily N member 3) | 2 | 0.00992 | 40 | 40.2 | inactive

The list itself, from the first entry:
gene symbol | siRNA no. | log2 vehicle/camptothecin viability | viability with camptothecin (% of control) | viability without drug (% of control) | Call
KCNN3 (potassium calcium-activated channel subfamily N member 3) | 1 | -0.33 | 79.3 | 63.1 | inactive
KCNN3 (potassium calcium-activated channel subfamily N member 3) | 2 | 0.00992 | 40 | 40.2 | inactive
KCNN3 (potassium calcium-activated channel subfamily N member 3) | 3 | -0.0702 | 87.5 | 83.4 | inactive
FOXN3 (forkhead box N3) | 1 | -0.241 | 122 | 103 | inactive
FOXN3 (forkhead box N3) | 2 | -0.333 | 59.1 | 47 | inactive
FOXN3 (forkhead box N3) | 3 | -0.535 | 98.2 | 67.8 | inactive
FOXN3 (forkhead box N3) | 4 | -0.189 | 114 | 100 | inactive
PTGS1 (prostaglandin-endoperoxide synthase 1) | 1 | -0.225 | 43.7 | 37.4 | inactive
PTGS1 (prostaglandin-endoperoxide synthase 1) | 2 | -0.0624 | 79.1 | 75.7 | inactive
PTGS1 (prostaglandin-endoperoxide synthase 1) | 3 | -0.236 | 87.4 | 74.3 | inactive
PTGS1 (prostaglandin-endoperoxide synthase 1) | 4 | -0.177 | 85 | 75.2 | inactive
CLCN1 (chloride voltage-gated channel 1) | 1 | 0.0813 | 92.9 | 98.3 | inactive
CLCN1 (chloride voltage-gated channel 1) | 2 | -0.117 | 109 | 101 | inactive
CLCN1 (chloride voltage-gated channel 1) | 3 | -0.339 | 67.6 | 53.4 | inactive
CLCN1 (chloride voltage-gated channel 1) | 4 | 0.0154 | 56.7 | 57.3 | inactive
ST13 (ST13 Hsp70 interacting protein) | 1 | 0.232 | 67.5 | 79.3 | inactive
ST13 (ST13 Hsp70 interacting protein) | 2 | -0.253 | 95.5 | 80.1 | inactive
ST13 (ST13 Hsp70 interacting protein) | 3 | -0.133 | 87.3 | 79.6 | inactive
ST13 (ST13 Hsp70 interacting protein) | 4 | -0.341 | 105 | 82.5 | inactive
MARK4 (microtubule affinity regulating kinase 4) | 1 | -0.558 | 55.2 | 37.5 | inactive
MARK4 (microtubule affinity regulating kinase 4) | 2 | 0.236 | 66.9 | 78.8 | inactive
MARK4 (microtubule affinity regulating kinase 4) | 3 | -0.0142 | 105 | 104 | inactive
MARK4 (microtubule affinity regulating kinase 4) | 4 | -0.582 | 74.5 | 49.8 | inactive
EARS2 (glutamyl-tRNA synthetase 2, mitochondrial) | 1 | -0.449 | 98 | 71.8 | inactive
EARS2 (glutamyl-tRNA synthetase 2, mitochondrial) | 2 | -0.0347 | 48 | 46.8 | inactive
EARS2 (glutamyl-tRNA synthetase 2, mitochondrial) | 3 | 0.347 | 45.4 | 57.7 | inactive
EARS2 (glutamyl-tRNA synthetase 2, mitochondrial) | 4 | -0.241 | 68 | 57.5 | inactive
HK1 (hexokinase 1) | 1 | 0.759 | 25.8 | 43.7 | inactive
HK1 (hexokinase 1) | 2 | 0.309 | 27.4 | 33.9 | inactive
HK1 (hexokinase 1) | 3 | 0.00431 | 46.2 | 46.4 | inactive
HK1 (hexokinase 1) | 4 | -0.0306 | 107 | 105 | inactive
RTBDN (retbindin) | 1 | -0.103 | 78 | 72.6 | inactive
RTBDN (retbindin) | 2 | -0.648 | 103 | 65.7 | inactive
RTBDN (retbindin) | 3 | -0.175 | 119 | 105 | inactive
RTBDN (retbindin) | 4 | -0.373 | 66.6 | 51.5 | inactive
TGFA (transforming growth factor alpha) | 1 | -0.116 | 110 | 101 | inactive
TGFA (transforming growth factor alpha) | 2 | 0.0555 | 108 | 113 | inactive
TGFA (transforming growth factor alpha) | 3 | -0.00931 | 101 | 100 | inactive
TGFA (transforming growth factor alpha) | 4 | -0.304 | 61.9 | 50.2 | inactive
TKT (transketolase) | 1 | -0.0108 | 41.6 | 41.3 | inactive
TKT (transketolase) | 2 | -0.0446 | 50.6 | 49 | inactive
TKT (transketolase) | 3 | -0.0383 | 81 | 78.9 | inactive
PDE11A (phosphodiesterase 11A) | 1 | -0.143 | 103 | 92.9 | inactive
PDE11A (phosphodiesterase 11A) | 2 | -0.151 | 102 | 92.3 | inactive
PDE11A (phosphodiesterase 11A) | 3 | 0.0454 | 84.4 | 87.1 | inactive
PDE11A (phosphodiesterase 11A) | 4 | 0.0193 | 42 | 42.6 | inactive
